Results from doi:10.1101/215590.

Tests used:
[1] = target: T1, Arabidopsis AGO1, split-YFP fusion for BiFC (Arabidopsis thaliana) (UniProt O04379); experiment: split reporter
T1 sequence: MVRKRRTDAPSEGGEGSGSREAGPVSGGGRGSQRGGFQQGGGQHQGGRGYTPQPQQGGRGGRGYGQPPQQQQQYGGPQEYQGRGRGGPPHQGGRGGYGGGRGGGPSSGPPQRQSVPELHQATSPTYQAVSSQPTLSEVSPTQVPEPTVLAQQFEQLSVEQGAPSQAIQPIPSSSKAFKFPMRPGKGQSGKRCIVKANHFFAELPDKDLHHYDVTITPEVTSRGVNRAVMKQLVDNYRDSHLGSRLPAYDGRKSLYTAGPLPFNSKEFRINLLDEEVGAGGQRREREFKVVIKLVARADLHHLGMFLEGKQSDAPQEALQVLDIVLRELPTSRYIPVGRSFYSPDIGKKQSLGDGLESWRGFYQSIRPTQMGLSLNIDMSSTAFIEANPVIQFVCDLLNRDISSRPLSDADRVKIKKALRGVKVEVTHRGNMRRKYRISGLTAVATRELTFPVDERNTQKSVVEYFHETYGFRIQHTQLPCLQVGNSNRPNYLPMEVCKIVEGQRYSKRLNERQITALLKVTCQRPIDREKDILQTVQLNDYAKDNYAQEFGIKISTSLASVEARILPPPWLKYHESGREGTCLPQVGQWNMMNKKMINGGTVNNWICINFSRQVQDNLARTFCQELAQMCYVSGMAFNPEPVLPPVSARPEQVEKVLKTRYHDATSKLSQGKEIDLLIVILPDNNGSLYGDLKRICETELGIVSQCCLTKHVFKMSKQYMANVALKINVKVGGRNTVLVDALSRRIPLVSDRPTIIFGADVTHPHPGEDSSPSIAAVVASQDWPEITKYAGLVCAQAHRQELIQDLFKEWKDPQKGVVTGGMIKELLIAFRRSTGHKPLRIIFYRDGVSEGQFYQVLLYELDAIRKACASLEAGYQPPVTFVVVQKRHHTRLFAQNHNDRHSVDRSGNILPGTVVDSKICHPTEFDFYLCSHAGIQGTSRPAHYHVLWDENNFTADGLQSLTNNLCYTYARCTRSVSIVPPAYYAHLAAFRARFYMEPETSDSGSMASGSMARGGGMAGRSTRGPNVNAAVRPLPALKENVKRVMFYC

[2] = target: T2, CFP-AGO1 (Arabidopsis thaliana) (UniProt O04379); experiment: FRET or BRET
T2 sequence: T1 sequence

Substance | binding [1] | binding [2]
HopT1-1m3 (triple GW>GF mutant of HopT1-1), split-YFP fusion for BiFC (Pseudomonas syringae pv. tomato DC3000) | no binding | 
HopT1-1m3-YFP (Pseudomonas syringae pv. tomato DC3000) |  | no binding
HopT1-1-YFP (Pseudomonas syringae pv. tomato DC3000) |  | binds
HopT1-1 (Hrp outer protein T1-1), split-YFP fusion for BiFC (from UniProt Q88BP7) | binds | 

Results are given in words; binding and its absence hold for the method and conditions named. In cells and extracts the contact can be indirect. A result given as binding can be weak or reduced; the word gives no strength. Tags and fused reporters may be left off the sequences shown.
